Results deposited as PubChem BioAssay AID686937 (Drosophila RNAi Screening Center, 2013)
Aim: 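Genes in the fly needed for secretion of protein constitutively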 (primary screen). Cell system: Drosophila S2 cells expressing secreted horseradish peroxidase. Reagent: long dsRNA against Drosophila genes. Duration: about 5.5 days (5 days dsRNA, then 12 h reporter induction). Treatment: reporter expression induced after 5 days of dsRNA, read 12 h later; inducer not stated. Measurement: 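After 5 days of dsRNA and 12 h of reporter induction, medium peroxidase read by chemiluminescence and scored as per-plate z-score; higher values mean more reporter released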. Scale: z-score: higher = more reporter secreted into medium.
The screen tested about 23,000 reagents; shown is a random part of those with a known target gene and a result. 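Reduced-secretion tags in replicate 1 do not always agree with the z-scores; no criterion for assigning the tags was given.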 Names joined by + are all predicted targets of the reagent. Not stated in the record: the amount of reagent.

Gene | DRSC id | z-score, replicate 1 | z-score, replicate 2 | z-score, replicate 3 | z-score, replicate 4 | phenotype, replicate 1
CG14646 | DRSC12232 | 0.09 | 0.16 | 0.08 | 0.12 | –
CG14646 | DRSC21316 | 0.04 | 1 | – | – | –
CG18558 | DRSC00525 | 0.09 | 0.07 | – | – | –
CG18558 | DRSC21593 | 0.38 | -0.43 | – | – | –
Wnt2 (Wnt oncogene analog 2) | DRSC05160 | 0.08 | – | – | – | –
Wnt2 (Wnt oncogene analog 2) | DRSC07574 | 0.22 | 0.23 | – | – | –
2mit | DRSC14194 | 0.59 | 0.19 | – | – | –
2mit | DRSC15224 | 0.33 | 0.19 | – | – | –
Brd8 (Bromodomain containing 8) | DRSC14866 | 0.6 | 0.53 | – | – | –
CG17931 + CG42446 | DRSC15293 | 0.39 | 0.52 | – | – | –
CG9485 | DRSC04557 | 0.14 | 0.18 | – | – | –
HLH4C (Helix loop helix protein 4C) | DRSC18670 | 0.33 | 0.24 | 0.3 | 0.3 | –
HLH4C (Helix loop helix protein 4C) | DRSC21322 | 1.48 | 1.03 | – | – | –
CG1943 | DRSC12576 | 0.31 | 0.17 | – | – | –
MTPAP (mitochondrial poly(A) polymerase) | DRSC18585 | 0 | 0.27 | – | – | –
CG14506 | DRSC14858 | 0.45 | 0.61 | – | – | –
Cyp316a1 (Cytochrome P450 316a1) | DRSC11130 | 0.21 | 0.21 | – | – | –
sel (seele) | DRSC06232 | 0.08 | 0.34 | 0.34 | 0.29 | –
Sgs1 (Salivary gland secretion 1) | DRSC00787 | 0.37 | 0.38 | – | – | –
Sgs1 (Salivary gland secretion 1) | DRSC00848 | -0.99 | -0.15 | – | – | –
CG43100 (retired record) | DRSC01001 | 0.13 | 0.39 | – | – | –
Ssb-c31a (Single stranded-binding protein c31A) | DRSC03443 | 0.33 | 0.46 | – | – | –
Sec61alpha (Sec61 alpha subunit) | DRSC03256 | -4.99 | -5.32 | – | – | reduced secretion
eEFSec | DRSC04571 | 0.24 | 0.16 | – | – | –
CG42811 | DRSC15367 | 0.26 | 0.32 | – | – | –
CG34382 | DRSC08999 | 0.54 | 0.22 | – | – | –
CG34382 | DRSC10166 | 0.3 | 0.13 | – | – | –
CG34382 | DRSC10167 | 0.95 | 0.34 | – | – | –
CG30334 | DRSC05345 | 0.51 | 0.14 | – | – | –
CG9029 | DRSC03129 | 0.19 | 0.18 | – | – | –
AANATL2 (Arylalkylamine N-acetyltransferase-like 2) | DRSC03227 | 0.52 | 0.32 | – | – | –
mof (males absent on the first) | DRSC18795 | 0.22 | 0.12 | – | – | –
Gr22b (Gustatory receptor 22b) | DRSC20911 | -1.71 | -0.3 | – | – | reduced secretion
CG14313 | DRSC14792 | 0.27 | 0.33 | – | – | –
js (jiangshi) | DRSC15004 | 0.09 | 0.46 | – | – | –
Cpr12A (Cuticular protein 12A) | DRSC19722 | 0.41 | 0.39 | – | – | –
Slik (Sterile20-like kinase) | DRSC04471 | -0.51 | -0.57 | – | – | –
CG1850 | DRSC06762 | 0.44 | 0.34 | – | – | –
CG14131 | DRSC10135 | -0.58 | -0.3 | – | – | –
ec (echinus) | DRSC17285 | 0.52 | -0.14 | – | – | –
ec (echinus) | DRSC17286 | 1.02 | 1 | – | – | –
ec (echinus) | DRSC18658 | 0.51 | 0.64 | – | – | –
amrt (amaretto) | DRSC19378 | 0.41 | 0.65 | – | – | –
CG8661 | DRSC20115 | -0.06 | -0.88 | – | – | –
Naus (Nausicaa) | DRSC06011 | 0.24 | 0.54 | – | – | –
Naus (Nausicaa) | DRSC06469 | 0.57 | 0.52 | – | – | –
CG15909 | DRSC04977 | 0.19 | 0.17 | – | – | –
Orc4 (Origin recognition complex subunit 4) | DRSC04634 | -11.1 | 0.14 | – | – | reduced secretion
CG10462 | DRSC02058 | 0.56 | 0.38 | – | – | –
RpS4 (Ribosomal protein S4) | DRSC11272 | -4.18 | -3.13 | – | – | reduced secretion
Dek | DRSC07418 | 0.18 | 0.12 | – | – | –
Tengl4 (Testis EndoG-Like 4) | DRSC15620 | 0.16 | 0.39 | – | – | –
dlg1 (discs large 1) | DRSC18895 | -2.23 | -2.43 | – | – | reduced secretion
dlg1 (discs large 1) | DRSC18896 | 0.78 | 0.6 | – | – | –
dlg1 (discs large 1) | DRSC19767 | -0.23 | -0.83 | – | – | –
dlg1 (discs large 1) | DRSC20324 | 0.3 | 0.45 | – | – | –
Rad9 | DRSC11263 | 0.4 | 0.45 | – | – | –
Task6 (TWIK-related acid-sensitive K[+] channel 6) | DRSC16530 | 0.18 | 0.33 | – | – | –
MED25 (Mediator complex subunit 25) | DRSC14483 | -6.88 | -4.16 | – | – | reduced secretion
lncRNA:CR31647 (long non-coding RNA:CR31647) | DRSC21903 | 0.2 | 0.33 | – | – | –
CG4374 | DRSC15570 | 0.34 | 0.36 | – | – | –
Hr39 (Hormone receptor-like in 39) | DRSC03346 | 0.29 | 0.16 | – | – | –
CG34011 | DRSC00888 | 0.04 | 0.28 | – | – | –
CG7564 | DRSC10880 | 0.18 | 0.17 | – | – | –
CG3246 | DRSC00584 | -0.19 | 0.03 | – | – | –
CG8138 | DRSC16386 | 0.26 | 0.61 | – | – | –
CG18599 | DRSC15357 | -3.86 | 0.34 | 0.25 | -4.64 | –
CG18599 | DRSC22585 | -3.74 | -2.75 | – | – | reduced secretion
CG33475 | DRSC22943 | -0.84 | -0.39 | – | – | –
CG30065 | DRSC05420 | 0.58 | 0.24 | – | – | –
Wnt4 (Wnt oncogene analog 4) | DRSC00976 | 0.33 | 0.77 | – | – | –
Wnt4 (Wnt oncogene analog 4) | DRSC03477 | 0.21 | 0.16 | – | – | –
AGO3 (Argonaute 3) | DRSC21386 | 0.31 | -1.07 | – | – | –
CG42307 + mus312 | DRSC11008 | 0.43 | 0.36 | – | – | –
CG1986 | DRSC18197 | 0.05 | -1.1 | – | – | –
CG32199 | DRSC09990 | 0.02 | -0.06 | – | – | –
prage | DRSC17957 | -0.09 | 0.14 | – | – | –
prage | DRSC17958 | -1.74 | -2.02 | – | – | reduced secretion
prage | DRSC18490 | 0.42 | 0.45 | – | – | –
prage | DRSC18497 | 0.13 | 0.38 | – | – | –
nrm (neuromusculin) | DRSC11597 | 0.5 | -0.07 | – | – | –
nrm (neuromusculin) | DRSC11599 | 0.34 | 0.13 | – | – | –
nrm (neuromusculin) | DRSC11897 | 0.13 | 0.23 | – | – | –

Single entries from the list:
Entry of CG42307 + mus312 [DRSC11008] in “z-score, replicate 2”: 0.36
Value of js (jiangshi) [DRSC15004] in “z-score, replicate 1”: 0.09
Entry of Wnt4 (Wnt oncogene analog 4) [DRSC00976] in “z-score, replicate 1”: 0.33
Entry of CG14131 [DRSC10135] in “z-score, replicate 1”: -0.58
For “z-score, replicate 1”, Hr39 (Hormone receptor-like in 39) [DRSC03346] reads 0.29
